These are yes or no findings as the source states them, for the method shown. Binding seen in cells or lysates may run through a third protein. Some results given as binding are weak or reduced against the parent protein; the word gives no strength. Tags and fused reporters may be left off the sequences shown. One block for each binder: values may come before it.
Legend:
Csm4 (S. cerevisiae) = target: T1, Csm4 (S. cerevisiae) (UniProt Q08955); assay: co-IP; meiotic cell lysates from NDJ1-HA diploid and untagged strain; IP with anti-HA probed with anti-Csm4, and reciprocal IP with anti-Csm4 probed with anti-HA; performed as described previously (ref. 5)
T1 sequence: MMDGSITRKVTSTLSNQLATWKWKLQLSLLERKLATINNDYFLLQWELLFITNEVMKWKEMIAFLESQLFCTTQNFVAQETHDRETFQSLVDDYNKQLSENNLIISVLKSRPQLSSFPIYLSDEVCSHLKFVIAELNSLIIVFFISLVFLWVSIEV

Ndj1-HA (S. cerevisiae) = target: T2, Ndj1-HA (S. cerevisiae) (UniProt Q12366); assay: as above
T2 sequence: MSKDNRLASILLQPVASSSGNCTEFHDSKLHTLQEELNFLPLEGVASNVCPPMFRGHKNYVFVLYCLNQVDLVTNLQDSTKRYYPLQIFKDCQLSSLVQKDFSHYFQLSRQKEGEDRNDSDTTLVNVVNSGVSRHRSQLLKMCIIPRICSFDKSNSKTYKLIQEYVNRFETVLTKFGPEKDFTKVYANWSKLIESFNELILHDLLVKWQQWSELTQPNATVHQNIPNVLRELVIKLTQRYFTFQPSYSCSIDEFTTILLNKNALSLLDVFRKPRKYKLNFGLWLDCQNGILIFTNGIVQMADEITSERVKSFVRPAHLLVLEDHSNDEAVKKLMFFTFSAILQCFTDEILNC

binding (Csm4 (S. cerevisiae)): binds
B1: Ndj1-HA (protein, UniProt Q12366 1-352)
chain: T2 sequence

binding (Ndj1-HA (S. cerevisiae)): binds
B2: Csm4 (protein, UniProt Q08955 1-156)
chain: T1 sequence

Source: paper PMC2533704
